At least one structure is not confirmed: it was looked up by name or label, or the drawing left a doubt.
System: IL-1β induced IL-8 release in THP-1 monocytes
Assay: Effect on IL-1β-induced cytokine (IL-8) release from human THP-1 monocytes (Luminex)
Type: cell-based
Settings: 18 h
Protocol: Each treatment was performed in triplicate. Media was collected by centrifugation and used for determination of cytokine content using a cytokine Luminex kit. The alamarBlue assay was performed to evaluate cell viability.
After determining the optimal concentration of IL-1β to induce cytokine release (30 ng/mL), cells were pre-cultured in RPMI-1640 medium containing 10% dialyzed FBS in a T-75 flask. […] Each treatment was performed in triplicate. Media were collected and used for determination of cytokine content using a cytokine Luminex kit. AlamarBlue assay was performed to evaluate the cell viability.
Luminex: Median fluorescence intensity (MFI) was used to obtain the concentration of each cytokines in pg/ml based on the standard curve of each cytokine assayed by Luminex. The linear range of the standard curve for each cytokine was used for determination of cytokine concentration.
To determine inhibition of IL-1β-induced cytokine release into the medium by dexamethasone or fluoroquinolone compounds as well cell viability, statistical analysis was performed using one-way ANOVA-Dunnett's test on raw data, and P<0.05 was considered statistically significant.
A concentration vs. effect curve was plotted for experiment 2, using averaged data from selected samples. […] Data were fitted to a re-parameterized four-parameter logistic equation using similar methodology as that previously described, and utilizing the statistical analysis software JMP8.

Structure (SMILES)	Effect on IL-1β induced IL-8 release (1000, 100, 10 and 1 nM)	Effect on IL-1β induced IL-8 release (1000, 100, 10 and 1 nM, listed as dexamethasone)	Effect on IL-1β induced IL-8 release (1000, 100, and 1 nM)	Effect on IL-1β induced IL-8 release (30 μg/mL)	Effect on IL-1β induced IL-8 release (30 μg/mL, listed as moxifloxacin)
C[C@@H]1C[C@H]2[C@@H]3CCC4=CC(=O)C=C[C@]4(C)[C@@]3(F)[C@@H](O)C[C@]2(C)[C@@]1(O)C(=O)CO [Dexamethasone, dexamethasone]	significantly reduced	diminished	significantly reduced		
COc1c(N2C[C@@H]3CCCN[C@@H]3C2)c(F)cc2c(=O)c(C(=O)O)cn(C3CC3)c12 [Moxifloxacin, moxifloxacin, reference compound]				significantly reduced	diminished

Source: US20110166126A1, “Compositions and Methods for Modulating Endophthalmitis Using Fluoroquinolones” (priority 2007, published 2011)
